Measured values reported in paper doi:10.1101/2020.08.09.242891 (bioRxiv, 2020).
Where two headings read alike, the source gives them in different places. These are yes or no findings as the source states them, for the method shown. Binding seen in cells or lysates may run through a third protein. Some results given as binding are weak or reduced against the parent protein; the word gives no strength. For some assays here: Tags and fused reporters may be left off the sequences shown.

Key:
Test in all cases: co-IP
[1] = molecular target: T1, FLAG-WT-CBX8 (UniProt Q9HC52)
T1 sequence: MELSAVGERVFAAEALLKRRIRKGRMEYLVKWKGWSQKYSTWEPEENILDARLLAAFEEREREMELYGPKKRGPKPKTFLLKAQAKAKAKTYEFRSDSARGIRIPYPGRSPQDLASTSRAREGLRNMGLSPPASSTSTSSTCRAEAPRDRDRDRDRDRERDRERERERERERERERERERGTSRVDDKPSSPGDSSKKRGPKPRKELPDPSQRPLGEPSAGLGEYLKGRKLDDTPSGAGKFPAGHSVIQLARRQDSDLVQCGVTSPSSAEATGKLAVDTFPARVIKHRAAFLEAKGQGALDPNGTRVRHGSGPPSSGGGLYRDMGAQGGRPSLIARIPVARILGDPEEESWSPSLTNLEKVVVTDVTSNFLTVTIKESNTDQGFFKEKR

[2] = molecular target: T1, FLAG-WT-CBX8; remark: listed apart in the source
[3] = molecular target: T1, FLAG-WT-CBX8; remark: listed apart in the source
[4] = molecular target: T2, HA-PKD1 (protein kinase D1) (UniProt Q15139)
T2 sequence: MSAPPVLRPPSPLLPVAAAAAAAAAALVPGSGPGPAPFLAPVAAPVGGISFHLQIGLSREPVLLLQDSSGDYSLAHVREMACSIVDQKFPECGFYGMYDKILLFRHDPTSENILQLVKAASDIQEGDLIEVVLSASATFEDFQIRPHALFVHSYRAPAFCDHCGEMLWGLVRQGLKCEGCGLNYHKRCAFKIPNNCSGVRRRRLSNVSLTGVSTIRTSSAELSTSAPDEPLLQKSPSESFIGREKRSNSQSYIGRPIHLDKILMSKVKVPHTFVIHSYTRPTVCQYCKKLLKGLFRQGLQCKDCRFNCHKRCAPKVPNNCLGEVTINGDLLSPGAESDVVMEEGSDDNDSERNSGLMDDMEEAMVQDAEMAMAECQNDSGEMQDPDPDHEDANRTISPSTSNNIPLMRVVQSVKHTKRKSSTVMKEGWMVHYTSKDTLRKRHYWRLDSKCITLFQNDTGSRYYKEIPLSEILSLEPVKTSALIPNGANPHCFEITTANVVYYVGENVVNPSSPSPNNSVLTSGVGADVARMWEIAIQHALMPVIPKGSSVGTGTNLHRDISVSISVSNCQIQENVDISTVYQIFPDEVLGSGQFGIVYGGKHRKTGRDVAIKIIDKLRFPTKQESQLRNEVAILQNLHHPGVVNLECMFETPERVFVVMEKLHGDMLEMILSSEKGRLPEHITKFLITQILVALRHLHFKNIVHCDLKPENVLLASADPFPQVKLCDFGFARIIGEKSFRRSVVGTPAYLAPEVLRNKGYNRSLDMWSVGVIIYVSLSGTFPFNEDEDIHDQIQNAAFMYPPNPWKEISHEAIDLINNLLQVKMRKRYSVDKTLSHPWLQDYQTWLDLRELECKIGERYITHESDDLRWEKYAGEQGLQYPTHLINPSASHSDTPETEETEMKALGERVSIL

[5] = molecular target: T3, endogenous PKD1 (protein kinase D1) (human (endogenous in HEK293T)) (UniProt Q15139)
T3 sequence: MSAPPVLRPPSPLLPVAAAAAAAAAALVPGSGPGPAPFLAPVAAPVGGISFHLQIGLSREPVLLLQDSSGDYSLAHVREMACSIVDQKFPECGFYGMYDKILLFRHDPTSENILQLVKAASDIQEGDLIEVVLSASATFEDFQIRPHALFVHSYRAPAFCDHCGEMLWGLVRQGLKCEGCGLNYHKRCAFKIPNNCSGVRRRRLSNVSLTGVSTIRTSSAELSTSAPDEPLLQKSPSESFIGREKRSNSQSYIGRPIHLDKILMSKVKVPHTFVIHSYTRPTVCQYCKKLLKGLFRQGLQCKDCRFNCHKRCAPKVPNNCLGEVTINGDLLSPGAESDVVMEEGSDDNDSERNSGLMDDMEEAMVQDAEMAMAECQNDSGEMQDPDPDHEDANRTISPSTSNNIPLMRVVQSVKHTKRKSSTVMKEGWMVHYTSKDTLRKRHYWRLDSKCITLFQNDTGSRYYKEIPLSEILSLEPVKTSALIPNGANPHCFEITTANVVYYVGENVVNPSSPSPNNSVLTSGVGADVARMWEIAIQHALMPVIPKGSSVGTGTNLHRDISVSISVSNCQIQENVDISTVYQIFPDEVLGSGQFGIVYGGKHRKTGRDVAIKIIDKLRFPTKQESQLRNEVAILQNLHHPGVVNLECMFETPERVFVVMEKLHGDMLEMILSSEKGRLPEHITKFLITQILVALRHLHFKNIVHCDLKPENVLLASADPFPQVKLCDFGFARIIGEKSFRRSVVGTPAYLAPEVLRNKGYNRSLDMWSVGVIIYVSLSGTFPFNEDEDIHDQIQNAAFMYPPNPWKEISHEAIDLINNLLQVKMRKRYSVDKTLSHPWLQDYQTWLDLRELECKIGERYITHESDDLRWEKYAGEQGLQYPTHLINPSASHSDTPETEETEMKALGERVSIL

B1: HA-PKD1 (protein kinase D1) (enzyme, UniProt Q15139 1-912)
chain: MSAPPVLRPPSPLLPVAAAAAAAAAALVPGSGPGPAPFLAPVAAPVGGISFHLQIGLSREPVLLLQDSSGDYSLAHVREMACSIVDQKFPECGFYGMYDKILLFRHDPTSENILQLVKAASDIQEGDLIEVVLSASATFEDFQIRPHALFVHSYRAPAFCDHCGEMLWGLVRQGLKCEGCGLNYHKRCAFKIPNNCSGVRRRRLSNVSLTGVSTIRTSSAELSTSAPDEPLLQKSPSESFIGREKRSNSQSYIGRPIHLDKILMSKVKVPHTFVIHSYTRPTVCQYCKKLLKGLFRQGLQCKDCRFNCHKRCAPKVPNNCLGEVTINGDLLSPGAESDVVMEEGSDDNDSERNSGLMDDMEEAMVQDAEMAMAECQNDSGEMQDPDPDHEDANRTISPSTSNNIPLMRVVQSVKHTKRKSSTVMKEGWMVHYTSKDTLRKRHYWRLDSKCITLFQNDTGSRYYKEIPLSEILSLEPVKTSALIPNGANPHCFEITTANVVYYVGENVVNPSSPSPNNSVLTSGVGADVARMWEIAIQHALMPVIPKGSSVGTGTNLHRDISVSISVSNCQIQENVDISTVYQIFPDEVLGSGQFGIVYGGKHRKTGRDVAIKIIDKLRFPTKQESQLRNEVAILQNLHHPGVVNLECMFETPERVFVVMEKLHGDMLEMILSSEKGRLPEHITKFLITQILVALRHLHFKNIVHCDLKPENVLLASADPFPQVKLCDFGFARIIGEKSFRRSVVGTPAYLAPEVLRNKGYNRSLDMWSVGVIIYVSLSGTFPFNEDEDIHDQIQNAAFMYPPNPWKEISHEAIDLINNLLQVKMRKRYSVDKTLSHPWLQDYQTWLDLRELECKIGERYITHESDDLRWEKYAGEQGLQYPTHLINPSASHSDTPETEETEMKALGERVSIL
- binding [1]: binds
- binding [2]: binds
- binding [3]: binds

B2: FLAG-WT-CBX8 (protein, UniProt Q9HC52 1-389)
chain: MELSAVGERVFAAEALLKRRIRKGRMEYLVKWKGWSQKYSTWEPEENILDARLLAAFEEREREMELYGPKKRGPKPKTFLLKAQAKAKAKTYEFRSDSARGIRIPYPGRSPQDLASTSRAREGLRNMGLSPPASSTSTSSTCRAEAPRDRDRDRDRDRERDRERERERERERERERERERGTSRVDDKPSSPGDSSKKRGPKPRKELPDPSQRPLGEPSAGLGEYLKGRKLDDTPSGAGKFPAGHSVIQLARRQDSDLVQCGVTSPSSAEATGKLAVDTFPARVIKHRAAFLEAKGQGALDPNGTRVRHGSGPPSSGGGLYRDMGAQGGRPSLIARIPVARILGDPEEESWSPSLTNLEKVVVTDVTSNFLTVTIKESNTDQGFFKEKR
- binding [4]: binds

B3: endogenous CBX8 (chromobox 8) (protein, UniProt Q9HC52 1-389)
chain: MELSAVGERVFAAEALLKRRIRKGRMEYLVKWKGWSQKYSTWEPEENILDARLLAAFEEREREMELYGPKKRGPKPKTFLLKAQAKAKAKTYEFRSDSARGIRIPYPGRSPQDLASTSRAREGLRNMGLSPPASSTSTSSTCRAEAPRDRDRDRDRDRERDRERERERERERERERERERGTSRVDDKPSSPGDSSKKRGPKPRKELPDPSQRPLGEPSAGLGEYLKGRKLDDTPSGAGKFPAGHSVIQLARRQDSDLVQCGVTSPSSAEATGKLAVDTFPARVIKHRAAFLEAKGQGALDPNGTRVRHGSGPPSSGGGLYRDMGAQGGRPSLIARIPVARILGDPEEESWSPSLTNLEKVVVTDVTSNFLTVTIKESNTDQGFFKEKR
- binding [5]: binds
